Some results were stated once for a whole list of compounds, not compound by compound. For some of these results: For at least one compound, name, drawing or mass did not settle the structure.
How the values were obtained:
[1] = target: T1, PMN LTB4 receptor (Homo sapiens, UniProt Q15722); assay: LTB4 Human Neutrophil (PMN) Binding Assay; design: endogenous in cells; host or cells: intact human neutrophils (PMN) isolated from heparinized blood; details: competition with [3H]LTB4 (1 nM), 10 min at 4° C
[2] = target: T1, PMN LTB4 receptor; assay: LTB4 Human Neutrophil (PMN) Binding Assay; details: competition with [3H]LTB4 (1 nM), 10 min at 4° C

Amino acid sequences for entries named in this document (tags omitted). A change or cut given only in a name is not applied to a line headed by its entry.
UniProt Q15722: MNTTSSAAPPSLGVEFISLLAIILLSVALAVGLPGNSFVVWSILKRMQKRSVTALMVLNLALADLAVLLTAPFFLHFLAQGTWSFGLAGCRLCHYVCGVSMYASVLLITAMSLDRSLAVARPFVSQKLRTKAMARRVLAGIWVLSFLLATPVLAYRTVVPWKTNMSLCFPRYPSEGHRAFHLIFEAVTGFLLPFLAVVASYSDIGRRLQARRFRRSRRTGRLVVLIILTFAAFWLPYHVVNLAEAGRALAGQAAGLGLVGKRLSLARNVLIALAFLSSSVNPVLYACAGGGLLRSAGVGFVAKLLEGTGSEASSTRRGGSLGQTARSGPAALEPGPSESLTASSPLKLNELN

Row | Compound | activity in the LTB4 Human Neutrophil (PMN) Binding Assay [1] | activity in the LTB4 Human Neutrophil (PMN) Binding Assay [2]
1 | CC(C)(CCCCOc1cc(-c2ccccc2)cc(-c2ccccc2)n1)c1nnn(CCCCC(=O)NCCCCC(NC(=O)c2ccc(NN=Cc3ccccc3S(=O)(=O)O)nc2)C(=O)NC[C@H]2O[C@@H]3O[C@H]4[C@H](O)[C@@H](O)[C@@H](O[C@H]5[C@H](O)[C@@H](O)[C@@H](O[C@H]6[C@H](O)[C@@H](O)[C@@H](O[C@H]7[C@H](O)[C@@H](O)[C@@H](O[C@H]8[C@H](O)[C@@H](O)[C@@H](O[C@H]9[C@H](O)[C@@H](O)[C@@H](O[C@H]2[C@H](O)[C@H]3O)O[C@@H]9CO)O[C@@H]8CO)O[C@@H]7CO)O[C@@H]6CO)O[C@@H]5CO)O[C@@H]4CO)n1 (stereo partly shown) [Example 28] | active | 
2 | CC(C)(CCCCOc1cc(-c2ccc3c(c2)OCO3)cc(-c2ccccc2)n1)CNC(=O)C(CC(=O)NC(CC(=O)O)C(=O)NC(CC(=O)O)C(=O)NC(CC(=O)O)C(=O)O)NC(=O)c1ccc(NN=Cc2ccccc2S(=O)(=O)O)nc1 (stereo not shown) [Example 88] |  | active
3 | O=C(/C=C/c1nc(CSc2c(Cl)cccc2Cl)ccc1OCCc1ccccc1)NCCCNC(=O)c1ccc(N/N=C/c2ccccc2S(=O)(=O)O)nc1 [Example 39, 2-Sulfobenzaldehyde (E)-N-[3-(6-Hydrazinonicotinamido)propyl]-3-[6-[[(2,6-dichlorophenyl)thio]methyl]-3-(2-phenylethoxy)-2-pyridinyl]-2-propenamide Hydrazone] |  | active
4 | CCc1cc(C(C)=O)c(O)cc1OCCCCCCc1cccc(OCCCCCC(=O)O)c1CCC(=O)O [Example 59, 2-(5-Carboxypentyloxy)-6-[6-[[4-acetyl-2-ethyl-5-hydroxyphenyl]oxy]hexyl]benzenepropanoic acid] |  | active
5 | O=C(O)CCc1c(OCCCCCOc2cc(-c3ccccc3)cc(-c3ccccc3)n2)cccc1OCCCC(=O)NCCCCC(NC(=O)c1ccc(N/N=C/c2ccccc2S(=O)(=O)O)nc1)C(=O)NCC(O)C(O)C(O)C(O)CO (stereo not shown) [Example 33, 3-(6-(3-(N-(5-((6-((1-Aza-2-(2-sulfophenyl)vinyl)amino)(3-pyridyl))carbonylamino)-5-(N-(2,3,4,5,6-pentahydroxyhexyl)carbamoyl)pentyl)carbamoyl)-propoxy)2-(5-(4,6-diphenyl(2-pyridyloxy))pentyloxy)phenyl)propanoic Acid] |  | active
6 | CC(C)(CCCCOc1cc(-c2ccc3c(c2)OCO3)cc(-c2ccccc2)n1)C(=O)NS(=O)(=O)c1ccc(N/N=C/c2ccccc2S(=O)(=O)O)nc1 [Example 75, 2-(2-aza-2-((5-((6-(4-benzo[d]1,3-dioxolan-5-yl-6-phenyl(2-pyridyloxy))-2,2-dimethylhexanoyl-amino)sulfonyl)-(2-pyridyl))amino)vinyl)benzenesulfonic acid] |  | active
7 | CC(C)(CCCCOc1cc(-c2ccccc2)cc(-c2ccccc2)n1)CNC(=O)c1ccc(CN(CCS)CC(=O)NCCS)cc1 [Example 24, 2-(((4-(N-(6-(4,6-Diphenyl(2-pyridyloxy))-2,2-dimethylhexyl)carbamoyl)phenyl)methyl)(2-sulfanylethyl)amino)-N-(2-sulfanylethyl)ethanamide] |  | active

— patent EP0999856B1, “RADIOPHARMACEUTICALS FOR IMAGING INFECTION AND INFLAMMATION” (Bristol-Myers Squibb Pharma Company, priority 1996, dated 1998)
